From US5916876A (Centocor, Inc., priority 1994, dated 1999) come the findings set out here.

The nature of this series: general procedure: Boc solid-phase peptide synthesis; 4-methyl benzhydrylamine resin. As to conditions: whole synthesis, scale 0.5 mmol.

HELM strings list residues between dots; [ac] is acetyl, [am] amide, other brackets name non-standard units.

Regarding “PEPTIDE1{D.Y.L.N.K.V.L.P.Y.Y.S.S.Y.Y.V.[am]}$$$$V2.0”, the crude mass stood at 1.044 g and the isolated mass was found to be 238 mg.
